Data as given in PubChem BioAssay AID1671190 (National Center for Advancing Translational Sciences (NCATS), 2021).
The campaign covered roughly 580,000 compounds. About 6,100 (1.1%) were called active. This list was built around the results that the source calls inconclusive (neither active nor inactive); the mix of calls is not that of the screen. Calls come from the whole dose curve; as a rule, active = well fitted inhibition curve with a large enough effect; inconclusive = small, poorly fitted or top-dose-only effect, or another doubt; inactive = no such curve, though single readings can be large or run the other way. Where the call is inconclusive, the potency comes from a doubtful curve fit.

Chains of the proteins cited; added tags and fusions are not shown. Lines headed by an entry give the natural chain unless they say otherwise; changes in a name come on top.
UniProt P18054: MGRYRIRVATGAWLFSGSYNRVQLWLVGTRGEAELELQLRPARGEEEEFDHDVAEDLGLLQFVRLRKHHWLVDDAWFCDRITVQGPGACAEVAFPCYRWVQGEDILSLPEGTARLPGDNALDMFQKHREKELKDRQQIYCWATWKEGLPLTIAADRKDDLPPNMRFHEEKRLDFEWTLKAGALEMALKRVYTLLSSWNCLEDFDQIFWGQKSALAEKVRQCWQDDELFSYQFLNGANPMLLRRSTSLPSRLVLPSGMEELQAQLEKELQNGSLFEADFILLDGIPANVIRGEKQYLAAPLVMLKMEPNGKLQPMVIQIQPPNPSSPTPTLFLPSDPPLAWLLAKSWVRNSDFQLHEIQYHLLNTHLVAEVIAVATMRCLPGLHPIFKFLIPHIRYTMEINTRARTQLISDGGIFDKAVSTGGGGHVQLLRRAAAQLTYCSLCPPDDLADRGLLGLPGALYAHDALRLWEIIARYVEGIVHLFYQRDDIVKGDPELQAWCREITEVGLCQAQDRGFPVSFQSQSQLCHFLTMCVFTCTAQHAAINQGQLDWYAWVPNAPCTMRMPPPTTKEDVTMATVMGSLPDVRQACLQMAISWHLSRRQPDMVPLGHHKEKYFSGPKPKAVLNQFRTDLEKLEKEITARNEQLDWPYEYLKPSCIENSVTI

molecular target: Polyunsaturated fatty acid lipoxygenase ALOX12 (Homo sapiens) (UniProt P18054); experiment: Primary qHTS assay for inhibitors of human arachidonate 12S-lipoxygenase (ALOX12): Round 2; conditions: purified 12hLO, xylenol orange hydroperoxide absorbance; activity change, negative = inhibition: at 108 µM (top of the series) unless noted
In short: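 Purified human 12hLO (150 nM final) in 25 mM Hepes, 0.01% Triton X-100, pH 7.0 was preincubated 15 min at room temperature with compound. Then 40 uM arachidonic acid was added, 30 min. Hydroperoxide was read by Fe-XO absorbance ratio 573/405 nm.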
% is set by controls: 0 for no effect and ±100 for the full control effect; potency is the fitted concentration of half-maximal effect.

Compound | Potency | activity change, negative = inhibition
O=C(c1ccc(N2CCOCC2)nc1)N1CCCC(c2ccccc2)CC1 (stereo not drawn) | inactive | –
CC(C)(C)C(=O)Nc1ccc(-c2nc3ccccc3s2)cc1 | inactive | –
O=C(O)C(c1c[nH]c2ccc(CO)cc12)N1CCCN(c2ccc(C(F)(F)F)cn2)CC1 (stereo not drawn) | inactive | –
COc1ccc2nc(/N=C(\N)NC(=O)N3c4ccccc4Sc4ccccc43)nc(C)c2c1 | inconclusive: 56.2 µM [inhibitor, partial curve, poor fit] | –
Cc1ccc2[nH]ccc(=O)c2c1 | inactive | –
COc1ccc(NC(=S)N/N=C2\CC(C)(C)Oc3ccc(OC)cc32)cc1 | inconclusive: 56.2 µM [inhibitor, partial curve, poor fit] | –
COc1ccc(NC(=O)CC(C)NCCCN2CCCC2=O)cc1 (stereo not drawn) | inactive | –
OCc1cccc(Nc2ncnc3ccsc23)c1 | inactive | –
CNc1nc(-c2ccccc2C)nc2ccccc12 | active: 39.8 µM | –
Cc1nc(CN(C)C(=O)CC2C(=O)NCCN2Cc2ccc(-c3ccccc3)cc2)cs1 (stereo not drawn) | inconclusive: 50.1 µM [inhibitor, partial curve, poor fit] | –
CC(C)C(=O)NCc1ccc(C(=O)N2CCC3(CCNCC3)CC2)cc1 | inconclusive: 12.6 µM [inhibitor, full curve, poor fit] | –
COCCn1c(=O)c(C)nc2cncnc21 | inconclusive: 1.26 µM [inhibitor, full curve, poor fit] | –
O=c1cc(CCl)c2c(ccc3ccccc32)o1 | inconclusive: 39.8 µM [inhibitor, partial curve] | –
COc1ccc(C(=O)/C(C#N)=N/Nc2ccc([N+](=O)[O-])cc2)cc1 | inconclusive: 126 µM [inhibitor, single point] | –
CCCCNC(=S)NN=C1CCCCCC1 | inconclusive: 44.7 µM [inhibitor, partial curve, poor fit] | –
COCCNC(=O)CN1C(=O)/C(=C/c2ccccc2)Oc2ccc(C(C)(C)C)cc21 | inactive | –
O=[N+]([O-])c1ccccc1/C=N/Nc1ccc(S(=O)(=O)Nc2ccc(Cl)cc2)cc1[N+](=O)[O-] | inconclusive: 0.178 µM [inhibitor, full curve, poor fit] | –
COC(=O)/C=C\C(C#N)(C#N)N=Cc1ccc(OC)cc1 | inconclusive: 126 µM [inhibitor, partial curve, poor fit] | –
COc1ccccc1NS(=O)(=O)c1ccc(-c2cnc(C)o2)cc1 | inactive | –
CC(=O)c1c(C(C)=O)c(C)n(-c2nc(-c3cccs3)c(C)s2)c1C | inconclusive: 63.1 µM [inhibitor, partial curve, poor fit] | –
CCSc1nnc(N2C(=O)c3ccc(C(=O)c4ccc(C(=O)O)cc4)cc3C2=O)s1 | – | inconclusive: -33.9% [inhibitor]
CCCCCC(=O)Nc1nc(C)c(-c2csc(Nc3cc(OC)ccc3OC)n2)s1 | inconclusive: 79.4 µM [inhibitor, single point] | –
CCCCN(Cc1cc2ccccc2[nH]c1=O)C(=O)c1ccc(OC)cc1 | inconclusive: 50.1 µM [inhibitor, partial curve, poor fit] | –

Compound | Potency | activity change, negative = inhibition
O=C(COc1ccccc1/C=C1\SC(=O)NC1=O)Nc1ccc(F)cc1 | inconclusive: 39.8 µM [inhibitor, partial curve] | –
COc1ccc(CCNC(=O)CCCn2c(=O)c3ccccc3n(CC(=O)Nc3cccc(C)c3)c2=O)cc1OC | inconclusive: 14.1 µM [inhibitor, partial curve, poor fit] | –
CC(C)=CCC[C@H](C)C[C@@H]1Cc2[nH][nH]c(=O)c2[C@H](c2ccc(F)cc2)O1 | inconclusive: 44.7 µM [inhibitor, partial curve, poor fit] | –
CCc1ccc(S(=O)(=O)N2CCN(C3CCN(CCC(C)C)C3=O)CC2)cc1 (stereo not drawn) | inconclusive: 14.1 µM [inhibitor, partial curve] | –
Cc1ccc(-n2c(SCC(=O)Nc3ccc4c(c3)OCO4)nnc2-c2cccs2)cc1 | inconclusive: 89.1 µM [inhibitor, single point] | –
COc1ccccc1NC(=O)Cn1cnc2c(nnn2Cc2ccc(F)cc2)c1=O | inactive | –
Cc1c(Cl)cccc1NC(=O)CSc1sc2c(O)cc(=O)[nH]c2c1C#N | inconclusive: 3.98 µM [inhibitor, full curve, poor fit] | –
O=C(COc1ccccc1)Nc1nn[nH]n1 | inconclusive: 28.2 µM [inhibitor, single point] | –
CCCc1c(-c2cccc(Cl)c2)ncn1Cc1ccccc1OC | inconclusive: 89.1 µM [inhibitor, single point] | –
O=C(CCc1nc(C2CCCN2C(=O)C2CC2)no1)NCCC1=CCCCC1 (stereo not drawn) | inactive | –
CCc1ccc(NC(=O)CSc2nc3n[nH]c(C)c3c(=N)n2-c2ccc(C)cc2)cc1 | inactive | –
CN1CCN(c2ncc3nc(-c4cccc(C#N)c4)c(=O)n(C[C@H]4CCCO4)c3n2)CC1 | inconclusive: 44.7 µM [inhibitor, partial curve, poor fit] | –
Cn1cccc1CN1CCC[C@]2(N[C@H](c3ccc(C(F)(F)F)cc3)[C@@H]3C(=O)N(Cc4ccccc4)C(=O)[C@@H]32)C1=O | inconclusive: 100 µM [inhibitor, single point] | –
O=C(NNC(=S)Nc1ccc(C(=O)O)c(O)c1)c1ccncc1 | inactive | –
COc1ccc2cc(CNc3ccc(C)cc3)c(=O)n(CC(=O)Nc3ccc(C)cc3C)c2c1 | active: 7.94 µM | –
O=C(N[C@@H]1CCN(C(=O)c2nnc3n2CCCC3)C[C@H]1O)c1cnccn1 | inactive | –
COc1cc(Cl)c(C)cc1NC(=O)Cn1cc(S(=O)(=O)N2CCN(c3ccccc3F)CC2)c2ccccc2c1=O | inconclusive: 89.1 µM [inhibitor, partial curve, poor fit] | –
CSc1ccc(-c2c/c(=N\c3nc(-c4ccccc4)c(C)s3)c3ccccc3o2)cc1 | inactive | –
Cc1cccc(CCNC(=O)C2CCC(CNS(=O)(=O)c3c(C)cc(C)cc3C)CC2)c1 (stereo not drawn) | inconclusive: 10 µM [inhibitor, full curve, poor fit] | –
Cc1cc2c(c(=O)n1Cc1cccnc1)C(c1ccccc1)C(C#N)=C(N)O2 (stereo not drawn) | inactive | –
COCCCNC(=O)c1cc(-c2cccs2)nc2ccccc12 | inconclusive: 112 µM [inhibitor, single point] | –
COc1cc2c(cc1OC)CN(Cc1cc(=O)n3c(-c4ccccc4)csc3n1)CC2 | inactive | –
O=C(O)c1cc(-c2cc3ccccc3o2)nn1-c1ccccc1 | inconclusive: 50.1 µM [inhibitor, partial curve, poor fit] | –

Single records, as listed above. Values in the order: Potency | activity change, negative = inhibition
`COc1ccc(NC(=O)CC(C)NCCCN2CCCC2=O)cc1` (stereo not drawn) reads inactive | –
`CCCc1c(-c2cccc(Cl)c2)ncn1Cc1ccccc1OC` reads inconclusive: 89.1 µM [inhibitor, single point] | –
`COCCNC(=O)CN1C(=O)/C(=C/c2ccccc2)Oc2ccc(C(C)(C)C)cc21` reads inactive | –

Further entries follow:

Compound | Potency | activity change, negative = inhibition
COc1ccc(C(=O)NC(=S)N2CCCCC2)cc1 | inconclusive: 56.2 µM [inhibitor, partial curve, poor fit] | –
CC(=O)/C(N=Nc1ccc(C(=O)O)cc1)=C(\C)O | inconclusive: 17.8 µM [inhibitor, partial curve, poor fit] | –
COc1cc(CNc2nc3ccccc3n2Cc2ccccc2)ccc1O | inactive | –
CCn1c(SCc2noc(-c3ccccc3Cl)n2)nnc1N1CCOCC1 | inconclusive: 35.5 µM [inhibitor, partial curve] | –
S=c1[nH]c(-c2ccccc2)cn1-c1ccccc1 | inconclusive: 56.2 µM [inhibitor, partial curve, poor fit] | –
CC(C)CCNC(=O)c1cccc(S(=O)(=O)N2CCc3ccccc32)c1 | inactive | –
N[C@H](C(=O)O)c1ccc(O)cc1 | inconclusive: 3.98 µM [inhibitor, full curve, poor fit] | –
O=C(c1cccc2ccccc12)N1CCC(c2nc3ccccc3o2)CC1 | inconclusive: 141 µM [inhibitor, single point] | –
O=C(CN1C(=O)/C(=C/c2ccccc2F)SC1=S)NC1C=CS(=O)(=O)C1 (stereo not drawn) | inactive | –
CCOC(=O)c1cc(CC)sc1N1C(=O)CC(Sc2ncccc2C(=O)O)C1=O (stereo not drawn) | inactive | –
O=C(CNC(=O)c1ccc2c(c1)OCCO2)N/N=C/c1ccc([N+](=O)[O-])cc1 | inconclusive: 100 µM [inhibitor, partial curve, poor fit] | –
COc1ccc(-c2cc(NC(=O)c3ccco3)n(C3CCS(=O)(=O)C3)n2)cc1 (stereo not drawn) | inconclusive: 63.1 µM [inhibitor, partial curve, poor fit] | –
COc1ccccc1NS(=O)(=O)c1cc(-c2c(C)nn3c2NC(=O)CCC3=O)ccc1C | inconclusive: 44.7 µM [inhibitor, partial curve, poor fit] | –
CCc1cccc(NC(=O)Cn2c(Nc3cc(C)cc(C)c3)nc(C)cc2=O)c1 | inconclusive: 12.6 µM [inhibitor, full curve] | –
COc1cccc(NC(=O)Nc2ccccc2SC)c1 | inactive | –
COCCCNCCCCOc1ccc(OCc2ccccc2)cc1 | inactive | –
O=C(CSc1nc2ccsc2c(=O)n1-c1ccc(Br)cc1)NCc1ccccc1 | inconclusive: 50.1 µM [inhibitor, partial curve, poor fit] | –
Cc1cc(C)c2oc(=O)cc(CN3CCC(C)CC3)c2c1 | inconclusive: 63.1 µM [inhibitor, partial curve, poor fit] | –
O=C(c1cccc(=O)[nH]1)N1CCCC(c2n[nH]c(=O)n2-c2ccccc2)C1 (stereo not drawn) | inconclusive: 31.6 µM [inhibitor, full curve, poor fit] | –
Cc1ccc(O)c(C(=O)c2cnc3c(c2)CN(C)C(=O)N3)c1 | inactive | –
O=C(Nc1cccc(C(F)(F)F)c1)Nc1cccs1 | inconclusive: 50.1 µM [inhibitor, partial curve, poor fit] | –
